Paper PMC7911190, “One Step Histological Detection and Staining of the PTEN Tumor Suppressor Protein by a Single Strand DNA”

Tests used:
[1] = system: GST-PTEN recombinant protein; assay: competition with a labelled probe; conditions: 2 mM GST-PTEN as printed blocks staining of endometrium; Fixed tissue sections; 5 uM aptamer in TKT (25 mM Tris-HCl pH 8, 20 mM KCl, 200 mM NaCl, 0.05% Triton X-100, 0.1% DMSO), 100 uM hemin for DNAzyme constructs, BSA; recombinant protein; protein details: GST; label: 5' biotin; folded or branched DNA
PTEN peptide = assay: competition with a labelled probe; conditions: 5 uM peptide blocks staining of endometrium; Fixed tissue sections; 5 uM aptamer in TKT (25 mM Tris-HCl pH 8, 20 mM KCl, 200 mM NaCl, 0.05% Triton X-100, 0.1% DMSO), 100 uM hemin for DNAzyme constructs, BSA; label: 5' biotin; folded or branched DNA

“CGGAATTCCGAGCGTGGGCGTGGTCATACCGCGCCTATCGAACTCGCCACTCGCGTGCAGCTCTGTGTAGGTACGCCCACGCTCGAG [PTENz7-87-biotin]”: binds [1]; binds (PTEN peptide).

For at least one entry, the source does not settle the construct or the ends of the probe.
